Earlier results in patent publication US6914051B1, “Penetrating antibiotic gel for soft tissue diseases” (priority 2000, dated 2005).
For at least one compound, name, drawing or mass did not settle the structure.

Tested on: Chlamydia Pneumoniae
Details: reported; cited from earlier work

SMILES: COc1c(N2C[C@@H]3CCCN[C@@H]3C2)c(F)cc2c(=O)c(C(=O)O)cn(C3CC3)c12 [moxifloxacin]
- potency against Chlamydia Pneumoniae: good potency
